Test results as given in publication PMC3154542 (Growth Factors (Chur, Switzerland), 2011).
No constants are given. Whether binding was seen depends on the method and setting. For some assays here: Where a sequence is shown, tags or fusion partners need not be part of it.

Amino acid sequences for entries named in this document (tags omitted). Residues count along the entry.
UniProt P37023, residues 22-118: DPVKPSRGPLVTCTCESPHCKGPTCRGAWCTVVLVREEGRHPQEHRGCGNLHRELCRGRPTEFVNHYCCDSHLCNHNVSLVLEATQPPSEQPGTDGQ

B1: recombinant human bone morphogenetic protein 2 (rhBMP2) (ligand, UniProt P12643 283-396, looked up)
chain: QAKHKQRKRLKSSCKRHPLYVDFSDVGWNDWIVAPPGYHAFYCHGECPFPLADHLNSTNHAIVQTLVNSVNSKIPKACCVPTELSAISMLYLDENEKVVLKNYQDMVVEGCGCR
notes: bone morphogenetic protein 2, human, mature domain; homodimer by non-reducing SDS-PAGE; source: CHO cells, purified (as in Wang et al. 1990)
B2: recombinant human bone morphogenetic protein 12 (rhBMP12) (ligand, UniProt Q7Z4P5 322-450, looked up)
chain: TALAGTRTAQGSGGGAGRGHGRRGRSRCSRKPLHVDFKELGWDDWIIAPLDYEAYHCEGLCDFPLRSHLEPTNHAIIQTLLNSMAPDAAPASCCVPARLSPISILYIDAANNVVYKQYEDMVVEACGCR
notes: bone morphogenetic protein 12 (BMP12, also known as GDF7), human, mature form; homodimer by non-reducing SDS-PAGE
B3: recombinant human bone morphogenetic protein 13 (rhBMP13) (ligand, UniProt Q6KF10 336-455, looked up)
chain: TAFASRHGKRHGKKSRLRCSKKPLHVNFKELGWDDWIIAPLEYEAYHCEGVCDFPLRSHLEPTNHAIIQTLMNSMDPGSTPPSCCVPTKLTPISILYIDAGNNVVYKQYEDMVVESCGCR
notes: bone morphogenetic protein 13 (BMP13, also known as GDF6), human, mature form; homodimer by non-reducing SDS-PAGE

What was measured:
[1] = biological target: ALK1-Fc (activin receptor-like kinase 1 extracellular domain linked to the human IgG Fc region) (UniProt P37023); experiment: BLI; receptor extracellular domain-Fc chimeras immobilised on anti-human IgG Fc biosensor tips (ForteBio Octet RED); sixfold serial dilutions of human BMPs in solution; association 10 min, dissociation 30 min; global fit to a 1:1 Langmuir model; both purified
[2] = biological target: T1, ALK2-Fc (activin receptor-like kinase 2 extracellular domain linked to the human IgG Fc region) (UniProt Q04771); experiment: as above
T1 sequence: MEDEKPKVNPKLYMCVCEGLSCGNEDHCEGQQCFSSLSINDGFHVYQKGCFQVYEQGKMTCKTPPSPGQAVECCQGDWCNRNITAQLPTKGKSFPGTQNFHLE

Row | Binder | binding [1] | binding [2]
1 | B1 | no binding | –
2 | B2 | no binding | no binding
3 | B3 | no binding | no binding
